{"sequences": {"note": "The chains behind the UniProt entries cited, without tags or fusion partners. Where a name states a change or a piece, a line headed by the entry shows the natural chain unless it says otherwise. Residues count along the entry.", "UniProt Q16288": "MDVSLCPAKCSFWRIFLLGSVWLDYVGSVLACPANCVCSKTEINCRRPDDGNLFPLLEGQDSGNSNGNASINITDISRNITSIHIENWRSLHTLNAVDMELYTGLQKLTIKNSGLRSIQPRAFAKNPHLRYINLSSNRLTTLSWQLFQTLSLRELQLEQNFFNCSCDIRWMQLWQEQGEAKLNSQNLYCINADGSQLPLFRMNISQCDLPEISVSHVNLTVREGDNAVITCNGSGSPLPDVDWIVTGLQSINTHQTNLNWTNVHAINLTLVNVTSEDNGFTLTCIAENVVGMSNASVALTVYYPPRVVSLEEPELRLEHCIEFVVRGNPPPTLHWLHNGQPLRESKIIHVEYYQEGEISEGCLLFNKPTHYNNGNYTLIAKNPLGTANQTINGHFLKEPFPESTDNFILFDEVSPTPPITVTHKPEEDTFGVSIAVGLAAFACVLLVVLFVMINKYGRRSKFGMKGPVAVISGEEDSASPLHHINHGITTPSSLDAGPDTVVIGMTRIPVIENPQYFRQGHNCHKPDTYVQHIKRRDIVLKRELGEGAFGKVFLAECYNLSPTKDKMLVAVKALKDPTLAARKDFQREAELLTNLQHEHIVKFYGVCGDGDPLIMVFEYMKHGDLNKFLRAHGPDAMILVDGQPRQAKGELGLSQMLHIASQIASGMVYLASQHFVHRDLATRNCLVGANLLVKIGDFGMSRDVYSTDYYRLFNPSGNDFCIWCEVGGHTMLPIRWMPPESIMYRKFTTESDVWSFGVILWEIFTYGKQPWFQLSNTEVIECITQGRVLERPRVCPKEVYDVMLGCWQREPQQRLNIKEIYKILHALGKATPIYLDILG", "UniProt P08138, residues 29-427": "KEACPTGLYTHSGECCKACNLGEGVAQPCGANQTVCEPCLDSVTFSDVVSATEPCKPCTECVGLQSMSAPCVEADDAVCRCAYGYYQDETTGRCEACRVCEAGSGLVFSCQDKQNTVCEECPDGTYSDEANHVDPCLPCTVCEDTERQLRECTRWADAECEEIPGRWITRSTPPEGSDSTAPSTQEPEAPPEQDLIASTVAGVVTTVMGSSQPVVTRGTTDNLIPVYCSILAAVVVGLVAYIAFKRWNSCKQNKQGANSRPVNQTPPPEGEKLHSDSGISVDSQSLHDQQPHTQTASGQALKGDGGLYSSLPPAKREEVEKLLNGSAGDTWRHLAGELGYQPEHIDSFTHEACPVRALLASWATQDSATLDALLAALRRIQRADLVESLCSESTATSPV"}, "source": "paper PMC8346142", "molecular_target": "truncated isoform of the tropomyosin-related kinase receptor C (TrkC-T1) (human (endogenous in SH-SY5Y)) (UniProt Q16288)", "assay": "co-IP; SH-SY5Y cells pretreated 24 h with vehicle or 1 mM VPA, then 1 h with vehicle or 1 nM NT-3; lysed in RIPA buffer with 1% Triton X-100; extract incubated overnight at 4 °C with anti-TrkC-T1 antibody, Protein G magnetic beads; immunoprecipitates blotted for p75NTR and TrkC-T1", "note": "These are yes or no findings as the source states them, for the method shown. In cells and extracts the contact can be indirect. Binding can be weak; no strength is given.", "data": [{"substance": "common neurotrophin p75NTR receptor (from UniProt P08138 29-427)", "values": [{"measurement": "binding", "value": "binds"}]}]}
